Results are given in words; binding and its absence hold for the method and conditions named. Some entries that bind do so weakly or less than the wild type.
Assays:
[1] = biological target: Aβ plaques in brain sections of Line 41 mice (human (hAPP transgene in mouse)); assay: immunoperoxidase staining with biotinylated antibody; unfixed and fixed sections, somewhat stronger after acetone/ethanol fixation
[2] = biological target: Aβ plaques in brain sections of Line 41 mice (human (hAPP transgene in mouse)); assay: immunoperoxidase staining of mouse brain sections
[3] = biological target: Aβ plaques in brain sections of Alzheimer's disease patients (human); assay: IHC on unfixed AD occipital cortex sections, visual score; B (E3/E4), patient 05-02′, Braak V
[4] = biological target: Aβ plaques in brain sections of Alzheimer's disease patients (human); assay: IHC on unfixed AD occipital cortex sections, visual score; A (E3/E3), patient 11-03, Braak V
[5] = biological target: Aβ plaques in brain sections of Alzheimer's disease patients (human); assay: IHC on unfixed AD occipital cortex sections, visual score; A (E3/E3), patient 24-01, Braak VI
[6] = biological target: Aβ plaques in brain sections of Alzheimer's disease patients (human); assay: IHC on unfixed AD occipital cortex sections, visual score; B (E3/E4), patient 24-01, Braak VI
[7] = biological target: Aβ plaques in brain sections of Alzheimer's disease patients (human); assay: IHC on unfixed AD occipital cortex sections, visual score; B (E3/E4), patient 11-03, Braak V
[8] = biological target: Aβ plaques in brain sections of Alzheimer's disease patients (human); assay: IHC on unfixed AD occipital cortex sections, visual score; A (E3/E3), patient 8-00′, Braak V
[9] = biological target: Aβ plaques in brain sections of Alzheimer's disease patients (human); assay: IHC on unfixed AD occipital cortex sections, visual score; A (E3/E3), patient 05-02′, Braak V
[10] = biological target: Aβ plaques in brain sections of Alzheimer's disease patients (human); assay: IHC on unfixed AD occipital cortex sections, visual score; A (E3/E3), median of five patients
[11] = biological target: Aβ plaques in brain sections of Alzheimer's disease patients (human); assay: immunostaining of unfixed AD brain sections, FIGS. 1A and 1B
[12] = biological target: Aβ plaques in brain sections of Alzheimer's disease patients (human); assay: immunoperoxidase staining of unfixed AD brain sections
[13] = biological target: Aβ plaques in brain sections of Alzheimer's disease patients (human); assay: fluorescent double labeling with 3D6, unfixed AD brain sections, FIG. 3A
[14] = biological target: Aβ plaques in brain sections of Alzheimer's disease patients (human); assay: fluorescent double labeling with 3D6, unfixed AD sections
[15] = biological target: Aβ plaques in brain sections of PDAPP mice (human (hAPP transgene in mouse)); assay: immunoperoxidase staining with biotinylated antibody; unfixed and fixed sections, frontal cortex
[16] = biological target: Aβ plaques in brain sections of Alzheimer's disease patients (human); assay: IHC on unfixed AD occipital cortex sections, visual score; B (E3/E4), patient 8-00′, Braak V
[17] = biological target: Aβ plaques in brain sections of Alzheimer's disease patients (human); assay: IHC on unfixed AD occipital cortex sections, visual score; B (E3/E4), median of five patients

- binding [1]: binds
- binding [2]: binds
- binding [3]: binds
- binding [4]: binds
- binding [5]: binds
- binding [6]: binds
- binding [7]: binds
- binding [8]: binds
- binding [9]: binds
- binding [10]: binds
- binding [11]: binds
- binding [12]: binds
- binding [13]: binds
- binding [14]: binds
- binding [15]: binds
- binding [16]: binds
- binding [17]: binds
B1: 21F12 monoclonal antibody (antibody, IgG1, V domains shown)
VH: EVQLQQSGPELLKPGASVKISCKASGFTFTDYTMHWMKQSHGKSLEWIGGINPNSGGTIYNEKFKDKATLTVDKSSRTAYMELRSLTSEDSAVYFCTRGVYDGYFYWGQGTLVTVSA
VL: DVVMTQTPLSLPVSLGDQASISCRSSQSLVYSNGNTFLHWYLQKPGQSPKLLIYKVSTRFSGVPDRFSGSGSGSDFTLKISRVEAEDLGIYFCSQTTHAPFTFGSGTKLAI

From patent publication US20150353631A1
